Assay results as given in the supplement of paper PMC12823440, “Inhibitors supercharge kinase turnover through native proteolytic circuits” (Nature, 2025).
The list shows a part of the results. Hit calls seldom repeat between salt and free forms of one compound.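 Kinases, fused to nanoluciferase, were expressed in K562 cells; luminescence was measured every 4 h from 2 to 18 h as percent of control (DMSO = 100%, positive control = 0%). A time point is decreased if signal falls significantly (2 sigma). Hits were called by the authors by a rule that is not shown; the count of time points alone does not decide it.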

The chains behind the UniProt entries cited, without tags or fusion partners. Where a name states a change or a piece, a line headed by the entry shows the natural chain unless it says otherwise.
UniProt Q9UM73: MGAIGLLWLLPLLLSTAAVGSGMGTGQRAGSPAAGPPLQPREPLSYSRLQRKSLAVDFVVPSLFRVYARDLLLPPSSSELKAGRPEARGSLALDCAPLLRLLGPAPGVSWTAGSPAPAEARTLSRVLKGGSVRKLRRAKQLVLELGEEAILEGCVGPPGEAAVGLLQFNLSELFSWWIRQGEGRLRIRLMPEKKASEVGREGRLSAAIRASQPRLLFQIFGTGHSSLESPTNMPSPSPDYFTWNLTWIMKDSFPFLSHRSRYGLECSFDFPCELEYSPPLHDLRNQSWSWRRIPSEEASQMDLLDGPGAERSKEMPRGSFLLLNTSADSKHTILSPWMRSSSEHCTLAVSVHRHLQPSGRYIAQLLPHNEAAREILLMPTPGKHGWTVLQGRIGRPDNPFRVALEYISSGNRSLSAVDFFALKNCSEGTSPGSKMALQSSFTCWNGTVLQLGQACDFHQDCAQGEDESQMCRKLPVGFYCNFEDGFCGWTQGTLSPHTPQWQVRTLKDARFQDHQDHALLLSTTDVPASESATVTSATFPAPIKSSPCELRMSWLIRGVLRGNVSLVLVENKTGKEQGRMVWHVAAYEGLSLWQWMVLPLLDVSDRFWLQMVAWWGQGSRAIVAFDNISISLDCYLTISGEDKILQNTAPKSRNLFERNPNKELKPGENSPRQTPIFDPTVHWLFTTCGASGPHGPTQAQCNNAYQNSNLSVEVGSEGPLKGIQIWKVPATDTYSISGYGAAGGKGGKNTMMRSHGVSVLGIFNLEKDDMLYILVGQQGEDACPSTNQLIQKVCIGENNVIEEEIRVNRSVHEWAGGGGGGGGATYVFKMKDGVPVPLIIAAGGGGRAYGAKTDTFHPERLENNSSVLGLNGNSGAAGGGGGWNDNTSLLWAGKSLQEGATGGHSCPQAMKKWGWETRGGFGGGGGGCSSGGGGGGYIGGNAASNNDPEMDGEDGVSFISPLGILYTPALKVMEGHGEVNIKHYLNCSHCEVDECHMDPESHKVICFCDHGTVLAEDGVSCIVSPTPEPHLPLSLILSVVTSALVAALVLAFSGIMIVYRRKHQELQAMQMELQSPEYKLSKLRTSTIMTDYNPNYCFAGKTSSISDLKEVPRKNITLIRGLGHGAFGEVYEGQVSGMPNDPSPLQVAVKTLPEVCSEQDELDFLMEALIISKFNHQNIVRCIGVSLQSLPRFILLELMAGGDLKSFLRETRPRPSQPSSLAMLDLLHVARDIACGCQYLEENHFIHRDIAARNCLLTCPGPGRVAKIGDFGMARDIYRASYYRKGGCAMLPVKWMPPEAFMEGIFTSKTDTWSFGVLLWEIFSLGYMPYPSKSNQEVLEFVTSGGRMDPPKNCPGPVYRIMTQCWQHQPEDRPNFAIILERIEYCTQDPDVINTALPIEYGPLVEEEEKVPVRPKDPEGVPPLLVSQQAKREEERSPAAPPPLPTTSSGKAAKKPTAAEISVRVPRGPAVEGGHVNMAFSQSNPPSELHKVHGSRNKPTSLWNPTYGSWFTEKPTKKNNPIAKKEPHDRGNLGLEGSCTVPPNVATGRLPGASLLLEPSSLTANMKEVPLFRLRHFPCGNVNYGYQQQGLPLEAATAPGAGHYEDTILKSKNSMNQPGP
UniProt P10398: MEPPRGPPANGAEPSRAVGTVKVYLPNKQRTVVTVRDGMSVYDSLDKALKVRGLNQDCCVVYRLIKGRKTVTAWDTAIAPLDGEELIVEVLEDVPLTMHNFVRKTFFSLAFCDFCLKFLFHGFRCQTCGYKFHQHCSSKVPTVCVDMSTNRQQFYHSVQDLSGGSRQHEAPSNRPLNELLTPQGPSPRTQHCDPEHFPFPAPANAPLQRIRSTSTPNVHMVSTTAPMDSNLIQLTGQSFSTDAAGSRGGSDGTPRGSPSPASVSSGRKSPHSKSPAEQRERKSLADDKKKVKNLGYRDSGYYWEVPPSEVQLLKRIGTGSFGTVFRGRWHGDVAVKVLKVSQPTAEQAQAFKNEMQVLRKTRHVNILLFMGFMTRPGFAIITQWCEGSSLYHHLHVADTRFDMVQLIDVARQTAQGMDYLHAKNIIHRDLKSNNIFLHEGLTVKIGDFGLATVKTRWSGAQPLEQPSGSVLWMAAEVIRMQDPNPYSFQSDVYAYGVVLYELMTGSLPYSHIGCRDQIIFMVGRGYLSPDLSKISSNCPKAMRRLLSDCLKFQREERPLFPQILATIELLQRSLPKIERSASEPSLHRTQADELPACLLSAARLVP
UniProt O14965: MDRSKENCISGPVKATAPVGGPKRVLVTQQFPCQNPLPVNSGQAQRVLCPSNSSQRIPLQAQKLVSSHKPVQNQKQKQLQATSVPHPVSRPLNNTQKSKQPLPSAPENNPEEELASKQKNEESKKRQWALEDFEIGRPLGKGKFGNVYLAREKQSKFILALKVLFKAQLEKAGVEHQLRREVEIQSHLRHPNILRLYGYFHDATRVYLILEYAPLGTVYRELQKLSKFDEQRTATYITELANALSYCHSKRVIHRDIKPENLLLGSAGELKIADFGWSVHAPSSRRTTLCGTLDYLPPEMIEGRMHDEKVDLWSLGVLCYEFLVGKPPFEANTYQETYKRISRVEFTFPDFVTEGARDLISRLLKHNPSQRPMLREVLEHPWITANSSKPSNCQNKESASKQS
UniProt Q96GD4, whole entry: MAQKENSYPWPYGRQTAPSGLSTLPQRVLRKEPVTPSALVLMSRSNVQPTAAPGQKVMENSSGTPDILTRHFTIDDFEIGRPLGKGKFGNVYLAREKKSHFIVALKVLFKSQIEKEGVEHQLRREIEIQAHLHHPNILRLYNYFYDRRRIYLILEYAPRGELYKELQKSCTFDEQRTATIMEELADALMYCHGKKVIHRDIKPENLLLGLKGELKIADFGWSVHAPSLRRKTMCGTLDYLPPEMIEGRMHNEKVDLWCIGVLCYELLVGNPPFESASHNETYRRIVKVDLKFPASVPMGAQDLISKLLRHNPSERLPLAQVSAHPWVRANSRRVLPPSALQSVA
UniProt Q9UQB9: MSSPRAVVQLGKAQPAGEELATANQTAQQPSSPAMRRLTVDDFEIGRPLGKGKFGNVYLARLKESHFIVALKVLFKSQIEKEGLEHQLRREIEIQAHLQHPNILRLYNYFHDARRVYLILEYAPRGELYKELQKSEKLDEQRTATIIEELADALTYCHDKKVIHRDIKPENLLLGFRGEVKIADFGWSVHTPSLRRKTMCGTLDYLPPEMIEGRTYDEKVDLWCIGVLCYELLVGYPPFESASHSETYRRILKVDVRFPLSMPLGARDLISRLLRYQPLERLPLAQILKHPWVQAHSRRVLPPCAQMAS
UniProt P51451: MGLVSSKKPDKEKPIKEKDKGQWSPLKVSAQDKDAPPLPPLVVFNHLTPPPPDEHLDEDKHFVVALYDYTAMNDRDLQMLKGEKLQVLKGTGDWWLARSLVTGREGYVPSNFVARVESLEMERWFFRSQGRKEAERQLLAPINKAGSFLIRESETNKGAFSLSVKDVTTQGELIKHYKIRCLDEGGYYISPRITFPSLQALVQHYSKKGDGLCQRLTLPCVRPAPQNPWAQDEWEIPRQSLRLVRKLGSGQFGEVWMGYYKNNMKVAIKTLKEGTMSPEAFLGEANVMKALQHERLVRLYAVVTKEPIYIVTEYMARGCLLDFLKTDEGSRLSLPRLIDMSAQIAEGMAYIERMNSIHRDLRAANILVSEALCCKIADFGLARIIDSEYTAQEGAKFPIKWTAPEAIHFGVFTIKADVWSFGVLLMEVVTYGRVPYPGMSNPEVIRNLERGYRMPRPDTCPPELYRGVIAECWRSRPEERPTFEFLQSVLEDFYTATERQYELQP
UniProt P51813: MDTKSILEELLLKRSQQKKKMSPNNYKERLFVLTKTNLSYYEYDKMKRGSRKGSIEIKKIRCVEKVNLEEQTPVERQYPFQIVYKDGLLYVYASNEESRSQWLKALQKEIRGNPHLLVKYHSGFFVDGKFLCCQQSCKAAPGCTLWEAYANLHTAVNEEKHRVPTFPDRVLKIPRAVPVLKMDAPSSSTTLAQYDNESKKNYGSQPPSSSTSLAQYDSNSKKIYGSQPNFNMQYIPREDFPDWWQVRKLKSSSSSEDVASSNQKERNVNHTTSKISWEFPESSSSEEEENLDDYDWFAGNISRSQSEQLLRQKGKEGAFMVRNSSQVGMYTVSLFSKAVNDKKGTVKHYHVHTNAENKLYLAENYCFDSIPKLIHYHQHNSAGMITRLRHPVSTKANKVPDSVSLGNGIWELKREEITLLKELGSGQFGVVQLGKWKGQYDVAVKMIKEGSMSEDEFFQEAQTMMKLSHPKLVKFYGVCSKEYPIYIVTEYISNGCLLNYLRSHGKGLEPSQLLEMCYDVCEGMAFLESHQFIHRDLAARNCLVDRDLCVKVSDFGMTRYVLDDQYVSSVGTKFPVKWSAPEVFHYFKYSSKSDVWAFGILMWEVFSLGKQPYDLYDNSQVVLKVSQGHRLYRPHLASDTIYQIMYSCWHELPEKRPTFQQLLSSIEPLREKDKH
UniProt P15056, whole entry, looked up: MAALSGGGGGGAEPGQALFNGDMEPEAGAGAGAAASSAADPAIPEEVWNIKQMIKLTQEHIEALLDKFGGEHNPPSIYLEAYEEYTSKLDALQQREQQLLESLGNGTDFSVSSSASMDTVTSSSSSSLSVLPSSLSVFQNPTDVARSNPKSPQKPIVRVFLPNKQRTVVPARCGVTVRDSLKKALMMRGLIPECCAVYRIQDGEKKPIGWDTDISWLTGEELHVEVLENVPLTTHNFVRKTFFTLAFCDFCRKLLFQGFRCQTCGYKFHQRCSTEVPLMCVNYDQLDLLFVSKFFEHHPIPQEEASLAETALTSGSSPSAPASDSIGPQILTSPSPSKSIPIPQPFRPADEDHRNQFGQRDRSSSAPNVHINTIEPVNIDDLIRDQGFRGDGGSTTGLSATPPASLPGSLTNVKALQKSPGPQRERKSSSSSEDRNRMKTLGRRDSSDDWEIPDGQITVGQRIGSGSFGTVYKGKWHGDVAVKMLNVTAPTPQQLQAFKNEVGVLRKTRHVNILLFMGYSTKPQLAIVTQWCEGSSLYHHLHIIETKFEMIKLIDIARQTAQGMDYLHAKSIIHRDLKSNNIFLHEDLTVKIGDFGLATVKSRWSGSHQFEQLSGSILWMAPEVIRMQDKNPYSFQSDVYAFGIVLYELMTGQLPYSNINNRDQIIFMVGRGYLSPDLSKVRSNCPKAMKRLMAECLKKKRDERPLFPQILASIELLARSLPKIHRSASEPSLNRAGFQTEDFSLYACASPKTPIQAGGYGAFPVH
UniProt Q06187: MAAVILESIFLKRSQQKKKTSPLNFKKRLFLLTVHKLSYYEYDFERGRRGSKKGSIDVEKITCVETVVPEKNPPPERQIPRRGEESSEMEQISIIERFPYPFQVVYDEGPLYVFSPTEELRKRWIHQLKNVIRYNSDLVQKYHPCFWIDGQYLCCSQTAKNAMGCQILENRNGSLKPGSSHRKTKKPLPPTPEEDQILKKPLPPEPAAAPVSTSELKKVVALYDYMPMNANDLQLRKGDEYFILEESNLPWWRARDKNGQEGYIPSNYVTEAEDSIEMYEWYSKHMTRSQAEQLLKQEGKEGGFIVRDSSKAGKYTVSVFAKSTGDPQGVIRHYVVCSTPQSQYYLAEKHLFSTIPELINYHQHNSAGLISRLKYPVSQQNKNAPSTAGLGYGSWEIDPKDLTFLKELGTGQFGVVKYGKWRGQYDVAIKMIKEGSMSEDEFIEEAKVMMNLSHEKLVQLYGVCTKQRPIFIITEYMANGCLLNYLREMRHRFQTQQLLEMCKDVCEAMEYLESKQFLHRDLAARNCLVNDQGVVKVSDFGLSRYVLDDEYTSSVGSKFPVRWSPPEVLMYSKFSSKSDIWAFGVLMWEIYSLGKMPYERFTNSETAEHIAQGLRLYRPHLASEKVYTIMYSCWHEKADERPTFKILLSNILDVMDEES

Key:
Experiment in all cases: number of time points (of 5) at which kinase-Nluc abundance scored as decreased, DMSO-normalised (count); higher = more persistent destabilization
Conditions in all cases: K562; 2-18 h
ALK = ALK (UniProt Q9UM73)
ARAF = ARAF (UniProt P10398)
AURKA = AURKA (UniProt O14965)
AURKB = AURKB (UniProt Q96GD4)
AURKC = AURKC (UniProt Q9UQB9)
BLK = BLK (UniProt P51451)
BMX = BMX (UniProt P51813)
BRAF = BRAF (UniProt P15056)
BTK = BTK (UniProt Q06187)
BRAF_V600E = tested on: BRAF_V600E

| SMILES | number of time points (ALK) | number of time points (ARAF) | number of time points (AURKA) | number of time points (AURKB) | number of time points (AURKC) | number of time points (BLK) | number of time points (BMX) | number of time points (BRAF) | number of time points (BTK) | number of time points (BRAF_V600E) |
| --- | --- | --- | --- | --- | --- | --- | --- | --- | --- | --- |
| CCCCNc1ncc(-c2ccc(CN3CCOCC3)cn2)c(NC2CCC(O)CC2)n1 (configuration not stated) (10 µM) | 0 | 0 | 0 | 0 | 0 | 0 | 0 | 0 | 0 |  |
| NC(=O)c1ccc2nc(-c3ccc(Oc4ccc(Cl)cc4)cc3)[nH]c2c1 (10 µM) | 0 | 0 | 0 | 0 | 0 | 0 | 0 | 0 | 0 |  |
| Brc1c(Br)c(Br)c2n[nH]nc2c1Br (10 µM) | 0 | 0 | 0 | 0 | 0 | 0 | 0 | 0 | 0 | 0 |
| CNC(=O)c1cc(Oc2ccc(NC(=O)Nc3cc(C(C)(C)C)nn3-c3ccc4ncccc4c3)c(F)c2)ccn1 [Rebastinib] (2.5 µM) | 3 | 0 | 3 | 3 | 1 | 3 | 4 |  | 0 | 3 |
| COc1cc(F)cc([C@@H](CO)NC(=O)[C@@H](C)N2Cc3ccc(-c4nc(NC5CCOCC5)ncc4Cl)cc3C2=O)c1 [ERK1/2 inhibitor 2] (10 µM) | 0 | 0 | 0 | 0 | 0 | 0 | 0 | 0 | 0 |  |
| CCOc1ccn(-c2ccc(F)cc2)c(=O)c1C(=O)Nc1ccc(Oc2ccnc(N)c2Cl)c(F)c1 (10 µM) | 1 | 0 | 1 | 0 | 0 | 0 | 2 |  |  | 2 |
| COc1cc(Oc2ccnc3cc(OC)c(OC)cc23)ccc1NC(=O)NC(C)c1nccs1 (configuration not stated) (2.5 µM) | 0 | 0 | 0 | 0 | 0 | 0 | 0 |  | 0 | 0 |
| CC(C)c1ccc2oc3nc(N)c(C(=O)O)cc3c(=O)c2c1 [Amlexanox] (10 µM) | 0 | 0 | 0 | 0 | 0 | 0 | 0 | 0 | 0 |  |
| COc1cc(C(=O)NC2CCN(C)CC2)ccc1Nc1ncc2c(n1)N(C1CCCC1)CC(F)(F)C(=O)N2C (10 µM) | 0 | 0 | 0 | 0 | 0 | 0 | 0 | 0 | 0 |  |
| COc1cc(CCc2cc(-c3nc4ccc(N5CCN(C)CC5)cc4[nH]3)n[nH]2)cc(OC)c1 (10 µM) | 0 | 0 | 0 | 0 | 0 | 1 | 1 | 0 | 0 |  |
| CN(C)CCOc1ccc(-c2nc(-c3ccncc3)c(-c3ccc4c(c3)CC/C4=N\O)[nH]2)cc1 (10 µM) | 0 | 0 | 0 | 0 | 0 | 0 | 0 |  | 0 | 0 |
| Cc1cccc([C@@H](CO)NC(=O)[C@@H](C)N2Cc3ccc(-c4nc(NC5CCOCC5)ncc4Cl)cc3C2=O)c1 [ERK1/2 inhibitor 1] (10 µM) | 0 | 0 | 1 | 0 | 0 | 0 | 0 | 0 | 0 |  |
| CN1CCN(S(=O)(=O)c2ccc(-c3cnc(N)c(C(=O)Nc4cccnc4)n3)cc2)CC1 (10 µM) | 0 | 0 | 0 | 0 | 0 | 0 | 2 | 0 | 0 |  |
| COC(=O)c1ccc2c(C(=Nc3ccc(N(C)C(=O)CN4CCN(C)CC4)cc3)c3ccccc3)c(O)[nH]c2c1 [Nintedanib] (2.5 µM) | 0 | 0 | 0 | 0 | 0 | 0 | 0 | 0 | 0 |  |
| Cn1nc(C(C)(C)C)cc1NC(=O)Nc1ccc(Oc2ccncc2)cc1 (10 µM) | 0 | 0 | 0 | 0 | 0 | 0 | 0 |  | 0 | 2 |
| CCN(CCCOc1ccc2c(Nc3cc(CC(=O)Nc4cccc(F)c4)[nH]n3)ncnc2c1)CCOP(=O)(O)O [Barasertib] (10 µM) | 0 | 0 | 0 | 0 | 0 | 0 | 3 | 0 | 0 | 2 |
| CC(C)(C)c1cc(NC(=O)Nc2ccc(-c3cn4c(n3)sc3cc(OCCN5CCOCC5)ccc34)cc2)no1 [Quizartinib] (10 µM) | 2 | 0 | 0 | 0 | 0 | 4 | 0 |  | 0 | 0 |
| O=C(Nc1cc(C(F)(F)F)ccc1N1CCN(Cc2ccccn2)CC1)c1ccc(-c2ccncc2)o1 (10 µM) | 0 | 0 | 0 | 0 | 0 | 3 | 0 | 2 | 0 |  |
| Cc1ccc2c(Nc3ccc(Cl)cc3)nccc2c1Nc1ncccc1-c1ncnc2nc[nH]c12 [Raf inhibitor 1] (2.5 µM) | 0 | 0 | 0 | 0 | 0 | 0 | 0 |  | 0 | 0 |

Reprinted at random: 2 entries already listed.

| SMILES | number of time points (ALK) | number of time points (ARAF) | number of time points (AURKA) | number of time points (AURKB) | number of time points (AURKC) | number of time points (BLK) | number of time points (BMX) | number of time points (BRAF) | number of time points (BTK) | number of time points (BRAF_V600E) |
| --- | --- | --- | --- | --- | --- | --- | --- | --- | --- | --- |
| CCN(CCCOc1ccc2c(Nc3cc(CC(=O)Nc4cccc(F)c4)[nH]n3)ncnc2c1)CCOP(=O)(O)O [Barasertib] (10 µM) | 0 | 0 | 0 | 0 | 0 | 0 | 3 | 0 | 0 | 2 |
| CC(C)c1ccc2oc3nc(N)c(C(=O)O)cc3c(=O)c2c1 [Amlexanox] (10 µM) | 0 | 0 | 0 | 0 | 0 | 0 | 0 | 0 | 0 |  |
